These results are taken from PMC5006001.

Chains of the proteins cited; added tags and fusions are not shown. Residues count along the entry.
UniProt P17156: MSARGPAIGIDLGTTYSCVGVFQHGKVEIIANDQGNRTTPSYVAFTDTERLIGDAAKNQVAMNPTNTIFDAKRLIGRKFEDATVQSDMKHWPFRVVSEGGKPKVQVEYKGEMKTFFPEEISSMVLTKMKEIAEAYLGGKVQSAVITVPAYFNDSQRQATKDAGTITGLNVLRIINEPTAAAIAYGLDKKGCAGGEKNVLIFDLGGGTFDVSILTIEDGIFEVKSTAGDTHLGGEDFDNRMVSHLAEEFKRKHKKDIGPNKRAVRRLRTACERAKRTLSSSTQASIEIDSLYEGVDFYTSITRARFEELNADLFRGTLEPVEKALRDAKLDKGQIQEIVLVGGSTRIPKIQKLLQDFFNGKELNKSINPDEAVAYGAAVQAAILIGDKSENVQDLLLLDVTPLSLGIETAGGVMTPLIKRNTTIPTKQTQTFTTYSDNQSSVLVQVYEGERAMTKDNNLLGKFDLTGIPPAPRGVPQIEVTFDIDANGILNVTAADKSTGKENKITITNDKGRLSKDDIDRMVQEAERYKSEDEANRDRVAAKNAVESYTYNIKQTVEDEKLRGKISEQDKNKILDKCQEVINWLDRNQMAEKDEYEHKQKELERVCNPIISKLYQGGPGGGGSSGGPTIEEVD
UniProt P20029, residues 20-655: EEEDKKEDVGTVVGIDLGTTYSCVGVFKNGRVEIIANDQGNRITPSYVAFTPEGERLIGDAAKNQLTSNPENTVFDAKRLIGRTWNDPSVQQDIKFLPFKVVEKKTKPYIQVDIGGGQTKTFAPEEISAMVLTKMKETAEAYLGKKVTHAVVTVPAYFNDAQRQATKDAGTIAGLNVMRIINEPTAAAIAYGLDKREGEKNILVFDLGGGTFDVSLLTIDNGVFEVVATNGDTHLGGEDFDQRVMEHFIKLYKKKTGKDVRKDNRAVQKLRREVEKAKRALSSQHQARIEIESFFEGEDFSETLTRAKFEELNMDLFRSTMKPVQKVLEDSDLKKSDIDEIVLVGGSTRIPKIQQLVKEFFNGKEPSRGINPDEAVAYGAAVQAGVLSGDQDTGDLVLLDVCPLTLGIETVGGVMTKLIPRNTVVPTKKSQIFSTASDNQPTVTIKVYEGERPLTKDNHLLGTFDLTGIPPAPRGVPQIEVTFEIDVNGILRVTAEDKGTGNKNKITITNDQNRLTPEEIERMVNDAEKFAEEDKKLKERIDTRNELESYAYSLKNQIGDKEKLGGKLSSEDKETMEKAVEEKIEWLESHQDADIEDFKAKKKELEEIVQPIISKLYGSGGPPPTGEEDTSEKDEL

Experiment [1] concerns the target T1, Trf2 tagged on its C-terminus with a 6xHis-Tev-3xFlag tag (mouse (endogenous in testis, knock-in allele)) (UniProt P62340).
T1 sequence: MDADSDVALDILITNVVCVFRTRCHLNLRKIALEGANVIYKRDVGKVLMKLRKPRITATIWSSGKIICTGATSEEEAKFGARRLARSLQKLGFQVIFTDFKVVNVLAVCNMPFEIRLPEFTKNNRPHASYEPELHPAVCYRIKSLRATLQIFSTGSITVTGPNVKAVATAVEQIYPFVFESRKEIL
Nature of the experiment: affinity purification with mass spectrometry; tandem Flag-His purification of tagged Trf2 from pooled gel filtration fractions B3-B7; SDS-PAGE, silver staining, gel sections excised and analysed by mass spectrometry; WT testis as control.

For experiment [2], the target named is T1, Trf2 tagged on its C-terminus with a 6xHis-Tev-3xFlag tag (mouse (endogenous in testis, knock-in allele)). Described as above. This is another data set of the same source.

Read-outs that look alike come from different tables or passages of the source. These are yes or no findings as the source states them, for the method shown. In cells and extracts the contact can be indirect. These calls come from enrichment with a bait or labelling near it, and not all partners need be listed. Tags and fused reporters may be left off the sequences shown.

Hspa2 (from UniProt P17156 1-633): the binding entry in experiment [1] is listed as “binds”. Take Hspa5 (from UniProt P20029 20-655): the binding result in experiment [1] is on record as “binds”.

B1: ALF (TFIIA-like factor) (protein, UniProt Q8R4I4 1-468)
chain: MAFINLVPKLYQSVIEDVIEGVRDLFAEEGIEEQVLKDLKKLWETKVLQSKATEDFFRNSTQVPLLTLQLPHALPPALQPEASLLIPAGRTLPSFTPEDLNTANCGANFAFAGYPIHVPAGMAFQTASGHLYKVNVPVMVTQTSGRTEILQHPFQQVLQQLGQPLVIQTTVPTLHPCSLQAATEKSLRMEAVLQPPPILHPPPVDRTHVENAASDRRLLPGNELRPQESSPYLSLPGVGFPPQAALTESSLEPVLGVSASLTQNLHSDPFSQGPPGPLHHHLLESQLQSLKDSIYGCDSTKQLRKAEEPSSLRVSEKNCTSERDLNIRVTDDDINEIIQIDGTGDNSSTEEMGSIRDADENEFPGIIDAGDLNVLEEVDSVSNEDSTANSSDNEDHQINAPEEDPLNSGDDVSEQDVPDLFDTENVIVCQYDKIHRSKNRWKFYLKDGVMCFGGRDYVFAKAIGEAEW
In the case of B1, in experiment [2], the binding entry is given as “binds”.
